No constants are given. Whether binding was seen depends on the method and setting. Binding seen in cells or lysates may run through a third protein. Some binding calls cover weakened binding; strength is not graded here.
Biological target: p85α subunit of PI3K (PI3Kp85α) (human (endogenous in A549 and H1299)) (UniProt P27986)
Test: co-IP; lysates of A549 and H1299 cells; performed as described previously (ref. 28); the paper does not tell which protein was precipitated

Sequences of proteins named here, by UniProt entry; tags and fusion partners are left off.
UniProt P27986: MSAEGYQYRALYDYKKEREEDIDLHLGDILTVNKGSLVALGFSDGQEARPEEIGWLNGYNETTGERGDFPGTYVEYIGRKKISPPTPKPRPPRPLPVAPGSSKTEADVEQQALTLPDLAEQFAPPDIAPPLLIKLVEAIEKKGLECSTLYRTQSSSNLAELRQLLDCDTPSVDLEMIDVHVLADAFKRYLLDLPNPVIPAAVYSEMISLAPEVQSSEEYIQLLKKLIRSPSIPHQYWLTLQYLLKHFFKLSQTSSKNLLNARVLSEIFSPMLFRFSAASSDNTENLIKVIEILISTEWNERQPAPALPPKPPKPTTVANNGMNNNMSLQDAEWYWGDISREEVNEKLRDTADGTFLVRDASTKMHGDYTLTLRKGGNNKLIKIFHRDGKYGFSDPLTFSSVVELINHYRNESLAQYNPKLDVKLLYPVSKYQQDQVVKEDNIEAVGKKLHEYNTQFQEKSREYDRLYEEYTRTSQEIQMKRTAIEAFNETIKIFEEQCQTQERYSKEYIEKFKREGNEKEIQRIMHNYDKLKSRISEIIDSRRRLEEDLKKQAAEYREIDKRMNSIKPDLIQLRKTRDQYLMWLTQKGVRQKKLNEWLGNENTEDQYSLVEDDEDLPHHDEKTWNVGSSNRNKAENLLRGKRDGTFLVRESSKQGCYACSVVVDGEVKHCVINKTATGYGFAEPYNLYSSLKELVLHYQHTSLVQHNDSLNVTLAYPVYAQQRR

B1: Makorin RING zinc finger-2 (MKRN2) (protein, UniProt Q9H000 1-416)
chain: MSTKQITCRYFMHGVCREGSQCLFSHDLANSKPSTICKYYQKGYCAYGTRCRYDHTRPSAAAGGAVGTMAHSVPSPAFHSPHPPSEVTASIVKTNSHEPGKREKRTLVLRDRNLSGMAERKTQPSMVSNPGSCSDPQPSPEMKPHSYLDAIRSGLDDVEASSSYSNEQQLCPYAAAGECRFGDACVYLHGEVCEICRLQVLHPFDPEQRKAHEKICMLTFEHEMEKAFAFQASQDKVCSICMEVILEKASASERRFGILSNCNHTYCLSCIRQWRCAKQFENPIIKSCPECRVISEFVIPSVYWVEDQNKKNELIEAFKQGMGKKACKYFEQGKGTCPFGSKCLYRHAYPDGRLAEPEKPRKQLSSQGTVRFFNSVRLWDFIENRESRHVPNNEDVDMTELGDLFMHLSGVESSEP
For B1, the binding was “binds”.
